From publication PMC10712316 come the findings set out here.

Protein sequences, listed by entry. Tags and fused reporters are not part of them.
UniProt Q13526: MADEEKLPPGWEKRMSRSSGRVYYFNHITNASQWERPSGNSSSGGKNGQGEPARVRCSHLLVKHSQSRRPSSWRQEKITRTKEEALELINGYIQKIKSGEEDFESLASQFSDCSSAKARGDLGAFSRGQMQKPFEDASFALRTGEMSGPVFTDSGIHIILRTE
UniProt Q04206: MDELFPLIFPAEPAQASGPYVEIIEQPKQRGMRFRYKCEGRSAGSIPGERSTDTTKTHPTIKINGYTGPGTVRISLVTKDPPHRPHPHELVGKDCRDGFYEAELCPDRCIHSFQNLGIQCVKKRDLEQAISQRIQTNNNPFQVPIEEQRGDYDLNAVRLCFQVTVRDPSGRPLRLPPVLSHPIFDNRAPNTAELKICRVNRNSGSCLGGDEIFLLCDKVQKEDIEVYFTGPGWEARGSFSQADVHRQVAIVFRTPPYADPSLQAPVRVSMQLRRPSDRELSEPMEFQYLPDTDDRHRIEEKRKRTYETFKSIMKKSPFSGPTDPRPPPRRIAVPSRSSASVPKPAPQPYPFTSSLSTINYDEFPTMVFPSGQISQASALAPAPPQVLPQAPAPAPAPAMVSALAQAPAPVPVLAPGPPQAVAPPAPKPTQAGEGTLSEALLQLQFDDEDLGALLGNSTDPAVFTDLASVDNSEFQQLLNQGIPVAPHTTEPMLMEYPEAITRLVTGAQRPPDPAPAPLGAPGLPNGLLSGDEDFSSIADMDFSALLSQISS
UniProt P05412: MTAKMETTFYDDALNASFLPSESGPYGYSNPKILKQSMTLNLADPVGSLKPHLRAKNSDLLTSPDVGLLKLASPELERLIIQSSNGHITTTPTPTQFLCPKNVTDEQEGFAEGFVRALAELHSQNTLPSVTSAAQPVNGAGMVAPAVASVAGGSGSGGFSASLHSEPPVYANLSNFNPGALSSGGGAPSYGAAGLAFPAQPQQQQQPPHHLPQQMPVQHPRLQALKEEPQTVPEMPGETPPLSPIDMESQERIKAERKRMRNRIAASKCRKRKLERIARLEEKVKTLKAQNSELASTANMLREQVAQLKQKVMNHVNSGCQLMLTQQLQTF

These are yes or no findings as the source states them, for the method shown. In cells and extracts the contact can be indirect. Some entries that bind do so weakly or less than the wild type.

For this assay, the target named is GST-Pin1 (peptidyl-prolyl cis-trans isomerase NIMA-interacting 1) (UniProt Q13526). Nature of the assay: pull-down; glutathione-Sepharose beads with 5 ug GST or GST-Pin1 incubated with clarified lysate of HKBML cells (co-cultured with BVPs), 4°C, 3 h; 50 mM HEPES pH 7.4, 200 mM NaCl, 10% glycerol, 1% Triton X-100; three washes; immunoblot; only the target purified. On the technique in general: In western blotting, separated proteins are transferred to a membrane and probed.

Turning to NF-κB p65 (from UniProt Q04206 1-551), the binding entry is “binds”.

Take c-Jun (from UniProt P05412 1-331): the binding entry was “binds”.
